PubChem BioAssay AID493246 – Drosophila RNAi Screening Center | 2011

Purpose: 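Identify essential fly genes by loss of cell viability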 (primary screen)
Cells: Drosophila Kc and S2R+ cells
Reagent: long dsRNA against Drosophila genes
Detection: 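Cell number per well after knock-down, printed as raw plate values; calls were based on per-plate z-scores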
Direction: Kc cell number and S2R+ cell number: higher = more cells remaining
Rule for the call: 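Counted as a hit if cell number falls by a z-score of at least 3 within its plate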
The screen tested about 21,000 reagents; shown is an unselected part of those that have a named target and a result. Of all reagents, 429 (2%) got an active call. 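Values are raw and not normalised between plates; calls rest on per-plate z-scores that were not deposited.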 Entries without a mark were called inactive. Not stated in the record: the amount of reagent, the time to read-out.

fon [DRSC02507] | Kc cell number, rep 1 = 1.39e6; Kc cell number, rep 2 = 1.44e6; S2R+ cell number, rep 1 = 1.32e6; S2R+ cell number, rep 2 = 1.36e6
Tbc1d22 [DRSC15867] | Kc cell number, rep 1 = 1.57e6; Kc cell number, rep 2 = 1.56e6; S2R+ cell number, rep 1 = 1.25e6; S2R+ cell number, rep 2 = 1.31e6
CG17168 [DRSC20904] | Kc cell number, rep 1 = 1.44e6; Kc cell number, rep 2 = 1.51e6; S2R+ cell number, rep 1 = 1.02e6; S2R+ cell number, rep 2 = 1.16e6
Tre1 [DRSC18726] | Kc cell number, rep 1 = 1.45e6; Kc cell number, rep 2 = 1.47e6; S2R+ cell number, rep 1 = 8.41e5; S2R+ cell number, rep 2 = 9.35e5
CG8563 [DRSC10996] | Kc cell number, rep 1 = 1.31e6; Kc cell number, rep 2 = 1.40e6; S2R+ cell number, rep 1 = 1.09e6; S2R+ cell number, rep 2 = 1.16e6
CG9452 [DRSC11075] | Kc cell number, rep 1 = 1.22e6; Kc cell number, rep 2 = 1.37e6; S2R+ cell number, rep 1 = 1.26e6; S2R+ cell number, rep 2 = 1.34e6
CG15393 (retired record) [DRSC00407] | Kc cell number, rep 1 = 1.49e6; Kc cell number, rep 2 = 1.52e6; S2R+ cell number, rep 1 = 1.06e6; S2R+ cell number, rep 2 = 1.19e6
ago [DRSC08463] | Kc cell number, rep 1 = 1.60e6; Kc cell number, rep 2 = 1.76e6; S2R+ cell number, rep 1 = 1.22e6; S2R+ cell number, rep 2 = 1.13e6
Obp19b [DRSC20536] | Kc cell number, rep 1 = 1.60e6; Kc cell number, rep 2 = 1.57e6; S2R+ cell number, rep 1 = 1.11e6; S2R+ cell number, rep 2 = 1.19e6
CG15042 [DRSC19618] | Kc cell number, rep 1 = 1.54e6; Kc cell number, rep 2 = 1.51e6; S2R+ cell number, rep 1 = 1.17e6; S2R+ cell number, rep 2 = 1.23e6
CG7367 [DRSC03049] | Kc cell number, rep 1 = 1.67e6; Kc cell number, rep 2 = 1.76e6; S2R+ cell number, rep 1 = 1.27e6; S2R+ cell number, rep 2 = 1.42e6
Smu1 [DRSC15803] | Kc cell number, rep 1 = 1.47e6; Kc cell number, rep 2 = 1.54e6; S2R+ cell number, rep 1 = 1.11e6; S2R+ cell number, rep 2 = 1.20e6
Sec15 [DRSC16179] | Kc cell number, rep 1 = 1.54e6; Kc cell number, rep 2 = 1.74e6; S2R+ cell number, rep 1 = 1.06e6; S2R+ cell number, rep 2 = 1.13e6
Hsp83 [DRSC08664] | Kc cell number, rep 1 = 1.40e6; Kc cell number, rep 2 = 1.33e6; S2R+ cell number, rep 1 = 9.83e5; S2R+ cell number, rep 2 = 1.14e6
Tip60 [DRSC18661] | Kc cell number, rep 1 = 4.96e5; S2R+ cell number, rep 1 = 7.94e5
CG33301 [DRSC02778] | Kc cell number, rep 1 = 1.52e6; Kc cell number, rep 2 = 1.56e6; S2R+ cell number, rep 1 = 1.18e6; S2R+ cell number, rep 2 = 1.33e6
Pfdn2 [DRSC10618] | Kc cell number, rep 1 = 1.43e6; Kc cell number, rep 2 = 1.35e6; S2R+ cell number, rep 1 = 1.20e6; S2R+ cell number, rep 2 = 1.31e6
DCTN5-p25 [DRSC03525] | Kc cell number, rep 1 = 1.50e6; Kc cell number, rep 2 = 1.61e6; S2R+ cell number, rep 1 = 1.17e6; S2R+ cell number, rep 2 = 1.25e6
CG5013 [DRSC15695] | Kc cell number, rep 1 = 1.29e6; Kc cell number, rep 2 = 1.33e6; S2R+ cell number, rep 1 = 1.14e6; S2R+ cell number, rep 2 = 1.26e6
Klp67A [DRSC11205] | Kc cell number, rep 1 = 1.76e6; Kc cell number, rep 2 = 1.81e6; S2R+ cell number, rep 1 = 9.19e5; S2R+ cell number, rep 2 = 1.12e6
CG12783 [DRSC14538] | Kc cell number, rep 1 = 1.43e6; Kc cell number, rep 2 = 1.46e6; S2R+ cell number, rep 1 = 1.18e6; S2R+ cell number, rep 2 = 1.35e6
Larp4B [DRSC08192] | Kc cell number, rep 1 = 1.39e6; Kc cell number, rep 2 = 1.22e6; S2R+ cell number, rep 1 = 8.21e5; S2R+ cell number, rep 2 = 1.06e6
Nepl5 [DRSC03241] | Kc cell number, rep 1 = 1.25e6; Kc cell number, rep 2 = 1.36e6; S2R+ cell number, rep 1 = 6.50e5; S2R+ cell number, rep 2 = 7.22e5
CG9312 [DRSC16471] | Kc cell number, rep 1 = 1.53e6; Kc cell number, rep 2 = 1.56e6; S2R+ cell number, rep 1 = 1.30e6; S2R+ cell number, rep 2 = 1.31e6
CG8757 [DRSC11039] | Kc cell number, rep 1 = 1.54e6; Kc cell number, rep 2 = 1.50e6; S2R+ cell number, rep 1 = 1.47e6; S2R+ cell number, rep 2 = 1.58e6
CG4768 [DRSC19917] | Kc cell number, rep 1 = 1.67e6; Kc cell number, rep 2 = 1.57e6; S2R+ cell number, rep 1 = 1.16e6; S2R+ cell number, rep 2 = 1.27e6
CG17134 [DRSC02583] | Kc cell number, rep 1 = 1.38e6; Kc cell number, rep 2 = 1.57e6; S2R+ cell number, rep 1 = 1.20e6; S2R+ cell number, rep 2 = 1.33e6

2 entries already listed, ordered by “Kc cell number, rep 1”, high to low.
Tre1 [DRSC18726] | Kc cell number, rep 1 = 1.45e6; Kc cell number, rep 2 = 1.47e6; S2R+ cell number, rep 1 = 8.41e5; S2R+ cell number, rep 2 = 9.35e5
CG17168 [DRSC20904] | Kc cell number, rep 1 = 1.44e6; Kc cell number, rep 2 = 1.51e6; S2R+ cell number, rep 1 = 1.02e6; S2R+ cell number, rep 2 = 1.16e6
